Test results as given in article PMC7835011.
These are yes or no findings as the source states them, for the method shown. Binding seen in cells or lysates may run through a third protein. Some binding calls cover weakened binding; strength is not graded here. For some assays here: Tags and fused reporters may be left off the sequences shown.

The chains behind the UniProt entries cited, without tags or fusion partners.
UniProt Q8CIM5: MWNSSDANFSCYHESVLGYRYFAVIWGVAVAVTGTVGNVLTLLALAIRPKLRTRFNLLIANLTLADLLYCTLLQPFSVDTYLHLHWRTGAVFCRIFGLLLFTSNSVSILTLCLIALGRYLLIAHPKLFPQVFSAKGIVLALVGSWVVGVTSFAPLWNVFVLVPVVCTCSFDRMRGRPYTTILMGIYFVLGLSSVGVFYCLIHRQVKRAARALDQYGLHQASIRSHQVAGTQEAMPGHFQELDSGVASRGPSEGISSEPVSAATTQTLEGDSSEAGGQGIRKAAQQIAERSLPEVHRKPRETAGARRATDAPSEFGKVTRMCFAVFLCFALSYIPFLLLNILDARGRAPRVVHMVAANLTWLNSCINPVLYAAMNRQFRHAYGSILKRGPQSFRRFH

Columns and labels:
[1] = molecular target: T1, recombinant GST-DOK3 fusion protein (human) (UniProt Q7L591); assay: pull-down; recombinant GST or GST-DOK3 on glutathione-agarose beads incubated with microglial cell lysates (~1 mg; cells stimulated by LPS 1 μM) at 4° C for 2 h, washed 3 times with RIPA buffer, immunoblot for GPR84; only the target purified
T1 sequence: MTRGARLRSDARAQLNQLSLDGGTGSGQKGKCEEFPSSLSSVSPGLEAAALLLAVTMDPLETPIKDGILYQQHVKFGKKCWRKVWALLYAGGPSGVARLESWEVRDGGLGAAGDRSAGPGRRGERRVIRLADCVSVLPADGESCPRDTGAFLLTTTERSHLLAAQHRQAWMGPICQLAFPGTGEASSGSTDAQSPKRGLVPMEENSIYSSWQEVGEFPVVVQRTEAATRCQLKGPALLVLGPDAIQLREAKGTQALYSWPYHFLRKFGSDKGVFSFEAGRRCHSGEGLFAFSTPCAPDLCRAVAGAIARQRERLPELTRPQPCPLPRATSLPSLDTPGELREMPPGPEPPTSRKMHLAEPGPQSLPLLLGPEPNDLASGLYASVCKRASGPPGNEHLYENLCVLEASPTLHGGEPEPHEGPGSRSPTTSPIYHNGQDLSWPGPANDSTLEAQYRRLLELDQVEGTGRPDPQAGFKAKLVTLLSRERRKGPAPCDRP

[2] = molecular target: T2, Adaptor molecule downstream of kinase-3 (DOK3), endogenous in BV2 microglia (mouse (endogenous in BV2)) (UniProt Q9QZK7); assay: co-IP; precleared BV2 microglia lysates (RIPA buffer), cells untreated or stimulated with LPS (1 μM) for 4 h; immunoprecipitation with anti-DOK3 antibody and protein A or G agarose, immunoblot with anti-GPR84 antibody
T2 sequence: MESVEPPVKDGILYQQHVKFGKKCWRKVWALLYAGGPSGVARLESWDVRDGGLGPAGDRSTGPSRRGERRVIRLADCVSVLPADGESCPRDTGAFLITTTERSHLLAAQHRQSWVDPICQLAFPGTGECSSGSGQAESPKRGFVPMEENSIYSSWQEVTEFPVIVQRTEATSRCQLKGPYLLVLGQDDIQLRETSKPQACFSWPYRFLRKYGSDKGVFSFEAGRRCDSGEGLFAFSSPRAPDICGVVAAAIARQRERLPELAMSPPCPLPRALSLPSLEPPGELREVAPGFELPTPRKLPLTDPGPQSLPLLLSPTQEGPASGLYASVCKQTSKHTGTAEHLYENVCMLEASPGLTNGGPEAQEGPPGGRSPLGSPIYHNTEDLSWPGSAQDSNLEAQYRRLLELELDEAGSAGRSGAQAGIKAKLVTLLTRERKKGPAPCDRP

“G-protein-coupled receptor 84 (GPR84), endogenous in BV2 microglia (from UniProt Q8CIM5 1-396)” was tested, and the binding [1] was “binds” and the binding [2] was “binds”.
